This assay addresses T1, CD200 cytoplasmic domain fused with 3× FLAG tags at the C-terminal (human) (UniProt P41217).
T1 sequence: KRHRNQDRGELSQGVQKMT
The experiment in a line: co-IP; lysate of UMSCC84 cells transfected with the FLAG-tagged CD200 construct, in IP buffer; precipitated with anti-FLAG M2 agarose beads; Western blot with anti-β-catenin or anti-FLAG.

The chains behind the UniProt entries cited, without tags or fusion partners. Where a name states a change or a piece, a line headed by the entry shows the natural chain unless it says otherwise.
UniProt P41217: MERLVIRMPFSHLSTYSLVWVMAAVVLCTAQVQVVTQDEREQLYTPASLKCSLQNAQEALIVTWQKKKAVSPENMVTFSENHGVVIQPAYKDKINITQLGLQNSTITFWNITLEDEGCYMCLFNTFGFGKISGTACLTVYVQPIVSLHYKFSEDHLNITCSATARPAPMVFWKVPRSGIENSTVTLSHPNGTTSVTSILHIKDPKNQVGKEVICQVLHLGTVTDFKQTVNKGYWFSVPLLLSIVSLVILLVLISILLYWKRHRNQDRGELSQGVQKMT
UniProt P35222: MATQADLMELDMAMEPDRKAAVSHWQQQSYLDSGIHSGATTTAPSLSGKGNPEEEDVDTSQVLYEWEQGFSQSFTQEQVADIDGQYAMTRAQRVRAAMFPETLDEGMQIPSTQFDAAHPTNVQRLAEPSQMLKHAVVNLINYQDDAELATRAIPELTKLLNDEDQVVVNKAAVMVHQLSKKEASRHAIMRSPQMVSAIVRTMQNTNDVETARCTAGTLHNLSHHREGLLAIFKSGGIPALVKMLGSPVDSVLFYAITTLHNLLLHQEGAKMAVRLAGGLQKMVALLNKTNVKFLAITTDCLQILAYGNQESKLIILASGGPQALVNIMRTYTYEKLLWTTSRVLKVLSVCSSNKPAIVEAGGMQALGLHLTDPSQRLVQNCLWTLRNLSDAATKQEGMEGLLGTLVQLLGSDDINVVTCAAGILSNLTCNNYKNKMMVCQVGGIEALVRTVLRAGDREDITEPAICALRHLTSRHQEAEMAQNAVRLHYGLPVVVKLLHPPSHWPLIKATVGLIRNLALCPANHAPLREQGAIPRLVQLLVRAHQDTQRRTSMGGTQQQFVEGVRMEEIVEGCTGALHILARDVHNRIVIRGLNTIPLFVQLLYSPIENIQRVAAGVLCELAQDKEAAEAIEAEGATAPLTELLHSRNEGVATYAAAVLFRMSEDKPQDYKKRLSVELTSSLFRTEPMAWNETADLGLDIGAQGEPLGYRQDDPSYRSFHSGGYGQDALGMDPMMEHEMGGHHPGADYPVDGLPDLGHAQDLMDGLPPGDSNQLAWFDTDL

Results are given in words; binding and its absence hold for the method and conditions named. In cells and extracts the contact can be indirect. Some results given as binding are weak or reduced against the parent protein; the word gives no strength. Sequences can lack the tags named with a protein.

For β-catenin (from UniProt P35222 1-781), the binding result was “binds”.
